# ± gives the standard deviation of the averaged measurements. This is a selection; strong and weak results do not stand in their true shares.
# Key:
# Experiment in all cases: NP40-soluble protein abundance relative to vehicle (solubility fold change) (ratio); higher = more soluble protein in presence of AMP-PNP
# CENPB = target: T1, CENPB (UniProt P07199)
# T1 sequence (whole entry): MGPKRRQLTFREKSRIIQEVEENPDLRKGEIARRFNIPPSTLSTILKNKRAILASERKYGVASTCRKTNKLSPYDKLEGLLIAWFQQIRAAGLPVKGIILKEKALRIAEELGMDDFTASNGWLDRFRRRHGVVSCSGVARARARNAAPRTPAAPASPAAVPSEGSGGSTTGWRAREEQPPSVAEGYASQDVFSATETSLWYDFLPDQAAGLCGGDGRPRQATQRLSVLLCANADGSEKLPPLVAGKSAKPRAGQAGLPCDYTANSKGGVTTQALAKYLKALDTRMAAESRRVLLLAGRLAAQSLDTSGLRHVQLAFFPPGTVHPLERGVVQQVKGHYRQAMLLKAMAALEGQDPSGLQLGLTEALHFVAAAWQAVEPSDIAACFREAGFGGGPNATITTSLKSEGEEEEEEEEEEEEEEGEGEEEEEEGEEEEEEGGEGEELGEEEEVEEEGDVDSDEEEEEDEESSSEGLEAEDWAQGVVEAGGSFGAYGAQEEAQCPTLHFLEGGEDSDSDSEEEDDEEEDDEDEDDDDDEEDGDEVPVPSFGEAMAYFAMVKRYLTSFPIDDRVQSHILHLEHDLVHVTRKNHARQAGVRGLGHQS
# How it was run: (§1)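 Across three independent experiments, values are fold changes against the detergent-processed vehicle for each replicate, based on vsn-normalised intensities. The samples were Jurkat crude lysate treated with eight concentrations (0.1 to 10 mM) for 10 min at room temperature and then 3 min at 37 °C. Lysate was solubilised with 0.8% NP40 and benzonase, ultracentrifuged, and the supernatant analysed by TMT-labelled LC-MS/MS.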
# CSTB = target: T2, CSTB (UniProt P04080)
# T2 sequence (whole entry): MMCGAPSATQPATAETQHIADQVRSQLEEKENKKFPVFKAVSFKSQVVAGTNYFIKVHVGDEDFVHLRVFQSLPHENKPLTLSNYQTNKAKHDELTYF
# How it was run: as §1
# CYBA = target: T3, CYBA (UniProt P13498)
# T3 sequence (whole entry): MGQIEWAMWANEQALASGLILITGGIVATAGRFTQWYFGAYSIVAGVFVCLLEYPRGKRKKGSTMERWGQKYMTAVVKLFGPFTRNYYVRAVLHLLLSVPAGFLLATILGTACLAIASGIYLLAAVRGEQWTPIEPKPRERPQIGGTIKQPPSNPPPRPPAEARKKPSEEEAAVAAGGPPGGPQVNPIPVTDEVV
# How it was run: as §1
# GLA = target: T4, GLA (UniProt P06280)
# T4 sequence (whole entry): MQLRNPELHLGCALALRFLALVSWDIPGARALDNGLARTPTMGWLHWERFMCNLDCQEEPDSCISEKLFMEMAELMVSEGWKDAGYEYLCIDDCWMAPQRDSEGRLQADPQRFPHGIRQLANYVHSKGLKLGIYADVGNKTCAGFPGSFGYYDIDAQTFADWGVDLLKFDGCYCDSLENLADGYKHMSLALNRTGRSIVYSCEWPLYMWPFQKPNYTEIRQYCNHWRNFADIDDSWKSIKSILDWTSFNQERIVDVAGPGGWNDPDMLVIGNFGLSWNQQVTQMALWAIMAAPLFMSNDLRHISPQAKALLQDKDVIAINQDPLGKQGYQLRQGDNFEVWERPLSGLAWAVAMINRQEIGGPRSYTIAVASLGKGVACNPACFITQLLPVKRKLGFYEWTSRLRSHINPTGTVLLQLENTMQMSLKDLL
# How it was run: as §1
# PTTG1 = target: T5, PTTG1 (UniProt O95997)
# T5 sequence (whole entry): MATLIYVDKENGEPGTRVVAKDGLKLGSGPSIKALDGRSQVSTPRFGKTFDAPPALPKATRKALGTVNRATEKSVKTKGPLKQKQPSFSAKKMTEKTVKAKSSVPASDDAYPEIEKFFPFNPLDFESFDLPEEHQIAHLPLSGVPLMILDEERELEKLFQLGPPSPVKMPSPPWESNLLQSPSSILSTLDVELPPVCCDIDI
# How it was run: as §1
# UniProt O95822-2|O95822 = target: T6, UniProt O95822-2|O95822
# T6 sequence (whole entry): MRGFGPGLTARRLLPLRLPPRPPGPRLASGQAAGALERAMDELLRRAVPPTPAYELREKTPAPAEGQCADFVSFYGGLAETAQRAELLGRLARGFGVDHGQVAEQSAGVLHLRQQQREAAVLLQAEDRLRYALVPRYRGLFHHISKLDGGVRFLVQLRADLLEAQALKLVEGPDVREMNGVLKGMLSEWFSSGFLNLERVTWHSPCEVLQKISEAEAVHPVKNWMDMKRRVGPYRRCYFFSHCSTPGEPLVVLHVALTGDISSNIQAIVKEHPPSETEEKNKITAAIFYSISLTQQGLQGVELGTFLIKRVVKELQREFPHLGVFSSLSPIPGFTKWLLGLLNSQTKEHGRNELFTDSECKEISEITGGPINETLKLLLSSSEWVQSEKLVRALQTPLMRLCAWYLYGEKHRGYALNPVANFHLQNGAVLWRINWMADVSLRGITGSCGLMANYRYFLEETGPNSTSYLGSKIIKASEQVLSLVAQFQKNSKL
# How it was run: as §1
# [1] = target: T7, UniProt P04083 and related entries
# T7 sequence (whole entry): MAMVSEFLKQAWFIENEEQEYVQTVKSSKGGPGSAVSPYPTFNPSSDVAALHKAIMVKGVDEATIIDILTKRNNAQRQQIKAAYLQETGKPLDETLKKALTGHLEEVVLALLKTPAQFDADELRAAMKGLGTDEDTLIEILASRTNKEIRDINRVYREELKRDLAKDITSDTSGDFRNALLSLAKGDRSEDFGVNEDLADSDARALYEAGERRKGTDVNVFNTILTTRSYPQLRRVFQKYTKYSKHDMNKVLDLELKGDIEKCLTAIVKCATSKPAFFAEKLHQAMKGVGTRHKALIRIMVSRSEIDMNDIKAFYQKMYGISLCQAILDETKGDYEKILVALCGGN
# How it was run: as §1
# [2] = target: T8, UniProt P04150 and related entries
# T8 sequence (whole entry): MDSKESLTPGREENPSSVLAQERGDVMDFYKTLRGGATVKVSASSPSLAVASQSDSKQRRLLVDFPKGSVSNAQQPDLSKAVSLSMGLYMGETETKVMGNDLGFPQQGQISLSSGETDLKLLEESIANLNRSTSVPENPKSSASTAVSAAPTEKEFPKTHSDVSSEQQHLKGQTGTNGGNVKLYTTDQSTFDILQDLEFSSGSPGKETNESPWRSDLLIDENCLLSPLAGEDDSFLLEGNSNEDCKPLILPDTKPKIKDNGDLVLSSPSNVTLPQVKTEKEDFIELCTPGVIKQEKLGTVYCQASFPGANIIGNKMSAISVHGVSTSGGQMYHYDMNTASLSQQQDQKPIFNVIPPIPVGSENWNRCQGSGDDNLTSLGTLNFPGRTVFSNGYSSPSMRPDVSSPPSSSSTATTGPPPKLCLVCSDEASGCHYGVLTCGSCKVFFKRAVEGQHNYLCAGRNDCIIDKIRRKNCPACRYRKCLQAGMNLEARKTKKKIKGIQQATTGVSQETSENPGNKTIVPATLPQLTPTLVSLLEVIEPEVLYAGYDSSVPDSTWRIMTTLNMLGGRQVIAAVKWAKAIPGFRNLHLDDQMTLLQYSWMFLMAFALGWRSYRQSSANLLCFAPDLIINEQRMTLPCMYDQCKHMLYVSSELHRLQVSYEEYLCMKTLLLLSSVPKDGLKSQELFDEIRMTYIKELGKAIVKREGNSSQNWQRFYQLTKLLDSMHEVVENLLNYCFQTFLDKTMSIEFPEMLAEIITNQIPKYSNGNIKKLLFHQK
# How it was run: as §1
# [3] = target: T9, UniProt P06737 and related entries
# T9 sequence (whole entry): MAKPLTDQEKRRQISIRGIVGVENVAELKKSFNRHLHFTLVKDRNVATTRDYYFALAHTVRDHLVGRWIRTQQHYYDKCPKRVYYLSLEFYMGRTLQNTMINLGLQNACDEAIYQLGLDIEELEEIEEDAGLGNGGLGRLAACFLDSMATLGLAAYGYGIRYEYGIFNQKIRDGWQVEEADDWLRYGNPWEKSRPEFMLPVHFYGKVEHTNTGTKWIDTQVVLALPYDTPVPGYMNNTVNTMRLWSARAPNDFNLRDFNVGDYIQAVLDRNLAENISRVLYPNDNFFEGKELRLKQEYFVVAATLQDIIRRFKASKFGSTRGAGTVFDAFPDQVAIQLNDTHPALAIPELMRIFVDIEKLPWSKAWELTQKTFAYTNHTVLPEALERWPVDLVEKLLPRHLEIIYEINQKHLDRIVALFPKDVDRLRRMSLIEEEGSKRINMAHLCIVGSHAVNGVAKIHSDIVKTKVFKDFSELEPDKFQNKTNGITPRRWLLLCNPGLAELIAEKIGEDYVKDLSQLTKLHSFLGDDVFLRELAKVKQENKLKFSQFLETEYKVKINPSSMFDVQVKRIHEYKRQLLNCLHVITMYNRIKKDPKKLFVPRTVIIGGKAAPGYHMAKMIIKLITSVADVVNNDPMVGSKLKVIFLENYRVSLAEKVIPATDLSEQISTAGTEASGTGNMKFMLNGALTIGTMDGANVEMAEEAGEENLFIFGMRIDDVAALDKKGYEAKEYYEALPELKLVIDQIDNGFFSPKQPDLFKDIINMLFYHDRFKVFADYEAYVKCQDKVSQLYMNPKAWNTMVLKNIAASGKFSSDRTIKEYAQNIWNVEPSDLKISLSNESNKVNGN
# How it was run: as §1
compound,measurement,setting,value
Nc1ncnc2c1ncn2[C@@H]1O[C@H](COP(=O)(O)OP(=O)(O)NP(=O)(O)O)[C@@H](O)[C@H]1O [adenylyl imidodiphosphate],NP40-soluble protein abundance,CENPB; concentration: 1mM,0.9903 ± 0.0031
same,NP40-soluble protein abundance,CENPB; concentration: 2mM,1 ± 0.02
same,NP40-soluble protein abundance,CENPB; concentration: 4mM,0.9993 ± 0.0066
same,NP40-soluble protein abundance,CENPB; concentration: 6mM,1.01 ± 0.036
same,NP40-soluble protein abundance,CENPB; concentration: 8mM,0.989 ± 0.034
same,NP40-soluble protein abundance,CENPB; concentration: 10mM,1.04 ± 0.045
same,NP40-soluble protein abundance,CSTB; concentration: 1mM,0.95 ± 0.029
same,NP40-soluble protein abundance,CSTB; concentration: 2mM,1.03 ± 0.095
same,NP40-soluble protein abundance,CSTB; concentration: 4mM,0.953 ± 0.046
same,NP40-soluble protein abundance,CSTB; concentration: 6mM,1.02 ± 0.057
same,NP40-soluble protein abundance,CSTB; concentration: 8mM,1 ± 0.062
same,NP40-soluble protein abundance,CSTB; concentration: 10mM,1.01 ± 0.12
same,NP40-soluble protein abundance,CYBA; concentration: 1mM,1.06 ± 0.027
same,NP40-soluble protein abundance,CYBA; concentration: 2mM,1.09 ± 0.024
same,NP40-soluble protein abundance,CYBA; concentration: 4mM,1.03 ± 0.018
same,NP40-soluble protein abundance,CYBA; concentration: 6mM,1.07 ± 0.091
same,NP40-soluble protein abundance,CYBA; concentration: 8mM,1.05 ± 0.1
same,NP40-soluble protein abundance,CYBA; concentration: 10mM,1.04 ± 0.058
same,NP40-soluble protein abundance,GLA; concentration: 1mM,1.02 ± 0.018
same,NP40-soluble protein abundance,GLA; concentration: 2mM,1.03 ± 0.055
same,NP40-soluble protein abundance,GLA; concentration: 4mM,1.05 ± 0.011
same,NP40-soluble protein abundance,GLA; concentration: 6mM,1.05 ± 0.068
same,NP40-soluble protein abundance,GLA; concentration: 8mM,1.06 ± 0.038
same,NP40-soluble protein abundance,GLA; concentration: 10mM,1.08 ± 0.05
same,NP40-soluble protein abundance,PTTG1; concentration: 1mM,0.9917 ± 0.006
same,NP40-soluble protein abundance,PTTG1; concentration: 2mM,1.03 ± 0.034
same,NP40-soluble protein abundance,PTTG1; concentration: 4mM,1 ± 0.024
same,NP40-soluble protein abundance,PTTG1; concentration: 6mM,0.9705 ± 0.007
same,NP40-soluble protein abundance,PTTG1; concentration: 8mM,0.97414 ± 0.00045
same,NP40-soluble protein abundance,PTTG1; concentration: 10mM,0.973 ± 0.0024
same,NP40-soluble protein abundance,UniProt O95822-2|O95822; concentration: 1mM,1.02 ± 0.1
same,NP40-soluble protein abundance,UniProt O95822-2|O95822; concentration: 2mM,0.993 ± 0.073
same,NP40-soluble protein abundance,UniProt O95822-2|O95822; concentration: 4mM,0.997 ± 0.045
same,NP40-soluble protein abundance,UniProt O95822-2|O95822; concentration: 6mM,0.969 ± 0.062
same,NP40-soluble protein abundance,UniProt O95822-2|O95822; concentration: 8mM,0.971 ± 0.056
same,NP40-soluble protein abundance,UniProt O95822-2|O95822; concentration: 10mM,0.966 ± 0.049
same,NP40-soluble protein abundance,[1]; concentration: 1mM,1.01 ± 0.039
same,NP40-soluble protein abundance,[1]; concentration: 2mM,1.04 ± 0.059
same,NP40-soluble protein abundance,[1]; concentration: 4mM,1 ± 0.041
same,NP40-soluble protein abundance,[1]; concentration: 6mM,0.967 ± 0.064
same,NP40-soluble protein abundance,[1]; concentration: 8mM,0.957 ± 0.073
same,NP40-soluble protein abundance,[1]; concentration: 10mM,0.927 ± 0.13
same,NP40-soluble protein abundance,[2]; concentration: 1mM,0.992 ± 0.021
same,NP40-soluble protein abundance,[2]; concentration: 2mM,1.01 ± 0.046
same,NP40-soluble protein abundance,[2]; concentration: 4mM,0.963 ± 0.024
same,NP40-soluble protein abundance,[2]; concentration: 6mM,0.959 ± 0.027
same,NP40-soluble protein abundance,[2]; concentration: 8mM,0.946 ± 0.03
same,NP40-soluble protein abundance,[2]; concentration: 10mM,0.919 ± 0.024
same,NP40-soluble protein abundance,[3]; concentration: 1mM,1.02 ± 0.019
same,NP40-soluble protein abundance,[3]; concentration: 2mM,1 ± 0.074
same,NP40-soluble protein abundance,[3]; concentration: 4mM,1.02 ± 0.017
same,NP40-soluble protein abundance,[3]; concentration: 6mM,0.987 ± 0.018
same,NP40-soluble protein abundance,[3]; concentration: 8mM,1 ± 0.019
same,NP40-soluble protein abundance,[3]; concentration: 10mM,0.998 ± 0.034

# Reformatted: entries from further up.
compound	measurement	setting	value
Nc1ncnc2c1ncn2[C@@H]1O[C@H](COP(=O)(O)OP(=O)(O)NP(=O)(O)O)[C@@H](O)[C@H]1O [adenylyl imidodiphosphate]	NP40-soluble protein abundance	[1]; concentration: 6mM	0.967 ± 0.064
same	NP40-soluble protein abundance	[1]; concentration: 8mM	0.957 ± 0.073
same	NP40-soluble protein abundance	[1]; concentration: 10mM	0.927 ± 0.13

# — the supplement of paper PMC6411743
